Data taken from the supplement of paper PMC3334620.
The full ranking holds about 33,000 sequences; the median of “E-score (-0.5 to 0.5)” is about -0.016, and the highest 2% start at about 0.3. Some of the results follow.

These sequences were tested against T1, Yer184c (UniProt P39961) (assay: PBM E-score (8-mer binding enrichment) (E-score (-0.5 to 0.5)); higher = stronger / more preferred TF binding). Details: protein concentration: 100 nM; construct: GST-full length.
T1 sequence: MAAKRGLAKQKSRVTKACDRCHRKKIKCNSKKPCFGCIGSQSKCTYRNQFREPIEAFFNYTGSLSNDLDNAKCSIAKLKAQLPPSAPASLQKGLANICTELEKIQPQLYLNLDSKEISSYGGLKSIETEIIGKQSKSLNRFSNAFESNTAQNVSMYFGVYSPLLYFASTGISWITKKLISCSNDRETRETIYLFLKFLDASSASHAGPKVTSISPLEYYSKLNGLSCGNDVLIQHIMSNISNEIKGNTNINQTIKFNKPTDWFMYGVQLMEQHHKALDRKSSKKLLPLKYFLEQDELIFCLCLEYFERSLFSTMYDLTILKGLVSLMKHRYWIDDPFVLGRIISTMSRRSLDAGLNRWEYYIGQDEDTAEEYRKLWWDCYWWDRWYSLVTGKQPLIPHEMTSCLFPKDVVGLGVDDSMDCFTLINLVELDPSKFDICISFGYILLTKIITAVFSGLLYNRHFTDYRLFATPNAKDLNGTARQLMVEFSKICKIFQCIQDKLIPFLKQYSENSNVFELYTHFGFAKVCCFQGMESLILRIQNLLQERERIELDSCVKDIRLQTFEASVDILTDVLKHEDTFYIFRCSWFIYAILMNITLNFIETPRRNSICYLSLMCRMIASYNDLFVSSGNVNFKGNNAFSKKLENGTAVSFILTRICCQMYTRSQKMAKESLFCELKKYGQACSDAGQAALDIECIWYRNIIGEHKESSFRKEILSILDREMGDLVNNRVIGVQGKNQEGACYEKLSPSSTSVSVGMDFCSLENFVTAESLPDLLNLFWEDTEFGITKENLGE
Method in brief: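 Using PURExpress in vitro transcription/translation, GST-tagged yeast transcription factors were made in full-length or DNA-binding-domain form. These were applied at about 100-200 nM to double-stranded universal all-10-mer Agilent arrays, and bound protein was detected with fluorescent anti-GST. Scans were normalised with masliner before the Universal PBM Analysis Suite assigned E-scores to ungapped eight-base words pooled with their reverse complements.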

Sequence	PBM E-score
ATATACAT	0.174
CCTCCAGC	-0.254
GAAACTAC	0.181
CTTGTTCC	0.153
CATTGTAG	-0.106
GAACACTA	0.0425
ATTGTTTA	0.124
ACGACCTC	0.0288
AGGTATTG	-0.0873
ATAGTTCG	0.133
CTGTGAAA	0.249
CAGGCTAG	-0.28
ACGCACGA	0.064
CGTGTCAG	0.0737
AAATTCCT	-0.0664
ATCGTCTG	-0.0447
CCCGCGGG	0.3
GGACCGTA	-0.00481
ACGTGCCA	-0.242
GCACAGAA	0.0756
AGACGATC	-0.334
ACTGGGAC	-0.193
CCGGAGTA	0.381
CATACCAA	-0.0295
CTGCGTTC	0.103

Sequence	PBM E-score
GCACAGCA	0.0113
AACAACGT	-0.113
ACTATATA	0.19
CCCGACCC	-0.0628
ACCGAGTC	-0.0455
ACCGACAG	0.11
CTGATAAA	0.0927
AGGCCCAG	-0.345
GATAGCCA	-0.107
CATGCTAC	-0.177
GGCGGCCA	-0.0827
TATACTAA	0.104
ATTTACGC	0.029
ATATTCGG	0.188
AGTTGAGA	-0.025
GCTTGCTA	-0.13
GGCGCCAA	-0.0615
CGTCAGTC	-0.057
AAGTTTCA	0.167
CGCACACA	-0.0939
GTGTCGAA	-0.118
AACAAAGG	-0.0899
CCGACTTA	0.304
CCACCACA	-0.093
ATTGTGTA	0.143

Sequence	PBM E-score
AGAGTCAG	-0.134
AGCAGGAG	-0.0829
AGTGGGTG	0.0405
AACCCTGG	-0.26
CCTTGACA	-0.129
CTTTTTGA	0.0865
ACATATCT	0.121
ACTTAGCC	-0.12
CGCTGTTA	-0.0994
AATGTGTG	-0.0345
CACACTTC	-0.0208
AGTAGACA	0.0712
CATTGCCG	0.24
CCCGTCAA	-0.0729
AGGTACGA	-0.137
AAACAGCT	0.0347
GAAGCAGA	0.0335
GAAGCCAC	-0.0556
GATGAATA	0.0934
AACCTAAA	0.205
AGATGATA	0.187
AACGACTC	-0.242
CAGCGCGC	0.0173
ACCGGCAG	0.0457
CTGGAAAC	0.032

Given in markdown: part of the list above.

| Sequence | PBM E-score |
| --- | --- |
| CGTGTCAG | 0.0737 |
| AGTTGAGA | -0.025 |
| GTGTCGAA | -0.118 |
| AGAGTCAG | -0.134 |
| CCCGTCAA | -0.0729 |

(next part)

Sequence	PBM E-score
GCTACACA	-0.117
TAGAGCCA	-0.247
CATGAGTC	-0.206
AATGAATC	-0.0127
CACTTCTG	-0.207
CATTTTTA	-0.121
GCTACGAC	-0.0595
AGCTGCTA	-0.0465
CACTAATC	0.0249
CCCTTACA	-0.118
CCGAGTGC	0.171
AATCCTGA	0.0482
CATGTTCA	-0.288
ATCGTTCG	0.0826
GAGCCCTA	-0.081
ATTAGTAA	0.167
CACGAATC	0.0178
CGTATACA	0.094
GCGTCGAC	0.0112
CATCCATC	-0.312
GTTCTTGA	-0.0364
CTACATTC	-0.0537
GGAAAACC	0.0228
GCCCGTCA	-0.138
CTATTCCC	0.0619

Sequence	PBM E-score
ATTGGGAA	-0.0191
TGCTTTAA	-0.00702
GACGTTCA	-0.198
GCGGCCCA	0.106
AGACCTCC	-0.328
ACGTACGC	-0.297
CAAGCATC	-0.105
GTAAGTTA	-0.00447
ATCTGGTA	-0.0155
ACAAGGAC	-0.244
CGTTATTA	0.144
CTCGTCTC	-0.164
AGGGAATA	0.0512
ATGCATGG	0.103
TATATATA	0.424
TATCCGCA	0.293
GAGAATCA	0.0478
ATTCCAGA	0.0645
CATGGGGA	-0.24
GATGTCAA	-0.0419
CATGCTCC	-0.245
AGTGCGGG	-0.0197
AGAACAGA	0.0872
CTTTTGAC	0.00937
AGTACTAG	0.0969

Sequence	PBM E-score
CGACCAAG	-0.197
TGGAAAAA	0.132
CTCTTCAG	0.01
CCTACGGA	-0.033
GCCGTTTA	0.149
CGTTTGTA	0.0882
GAAGTGGC	-0.147
AGGCGCTG	-0.0666
ATGTTCAC	0.00553
CCGACATC	0.155
ACGTCACA	-0.0893
CAGCTAGG	-0.289
CACGTCTG	0.0617
CGATATAG	0.0508
CGGTGAAC	0.0315
GGGCGACC	-0.167
GCGGAACA	0.237
AAATACAC	0.0314
CAACTGCA	0.0872
CCTCAGGC	-0.189
ACCCTTAC	-0.25
CGATAAAA	0.333
AACCTTGC	-0.177
CTTTCAAC	0.0434
GTCGTCCA	-0.137

Sequence	PBM E-score
ACATATGA	0.0853
AGGGTTAG	-0.213
CGGACTCC	0.112
AAGACCGG	0.0893
CACGATCG	-0.0228
AATGGGAC	-0.291
GTGAGCAC	-0.0931
CAGGTGCA	-0.0645
CAACATAA	0.122
CAAATCGG	0.247
CTTTGTTA	0.26
CACGCTCG	-0.0162
AGCGCCCC	-0.325
ACCCGTCA	-0.22
AGTGCAAA	0.219
ATTATGAC	0.137
CGGGACCC	-0.0643
CTTGAGGA	-0.0309
CCGCCATC	-0.206
TATCTACA	0.167
GAGGTAAC	0.0143
ACAAGAAC	0.298
